US20240366686A1, “BACTERIAL STRAIN, COMPOSITION, DRUG FOR USE IN COMBINATION, AND USE” (MOON (GUANGZHOU) BIOTECH CO., LTD., priority 2021, published 2024)
For at least one compound, name, drawing or mass did not settle the structure.

Experiments:
Format in all cases: in vivo, C57BL/6J male mice
[1] = tested on: obese mice induced by high-fat diet; experiment: Oral glucose tolerance test (OGTT) in obese mice induced by high-fat diet; settings: OGTT day 28, glucose 2 g/kg, mean ± SD
[2] = tested on: obese mice induced by high-fat diet; experiment: Fasting blood glucose and HOMA-IR in obese mice induced by high-fat diet; settings: HFD obese mice after 4 weeks intervention, fasted 10-12 hours; MNO-863 5 × 10^11 CFU/mL twice per day, Liraglutide 40 μg/mL once per day
[3] = tested on: obese mice induced by high-fat diet; experiment: Body weight and food intake in obese mice induced by high-fat diet; settings: HFD obese mice, mean ± SD
[4] = tested on: high-fat diet-induced obesity mouse model; experiment: MNO-863 and/or Liraglutide: body weight and inguinal fat in high-fat diet-induced obesity mouse model; settings: HFD obese mice
[5] = tested on: high-fat diet-induced obesity mouse model; experiment: MNO-863 and/or Liraglutide: glucose tolerance and fasting blood glucose in obese mice; settings: HFD obese mice
[6] = tested on: high-fat diet-induced obesity mouse model; experiment: MNO-863 and/or Liraglutide: liver weight after 4 weeks of drug withdrawal in obese mice; settings: HFD obese mice, FIG. 37

CCCCCCCCCCCCCCCC(=O)N[C@@H](CCC(=O)NCCCC[C@H](NC(=O)[C@H](C)NC(=O)[C@H](C)NC(=O)[C@H](CCC(N)=O)NC(=O)CNC(=O)[C@H](CCC(=O)O)NC(=O)[C@H](CC(C)C)NC(=O)[C@H](Cc1ccc(O)cc1)NC(=O)[C@H](CO)NC(=O)[C@H](CO)NC(=O)[C@@H](NC(=O)[C@H](CC(=O)O)NC(=O)[C@H](CO)NC(=O)[C@@H](NC(=O)[C@H](Cc1ccccc1)NC(=O)[C@@H](NC(=O)CNC(=O)[C@H](CCC(=O)O)NC(=O)[C@H](C)NC(=O)[C@@H](N)Cc1cnc[nH]1)[C@@H](C)O)[C@@H](C)O)C(C)C)C(=O)N[C@@H](CCC(=O)O)C(=O)N[C@@H](Cc1ccccc1)C(=O)N[C@H](C(=O)N[C@@H](C)C(=O)N[C@@H](Cc1c[nH]c2ccccc12)C(=O)N[C@@H](CC(C)C)C(=O)N[C@H](C(=O)N[C@@H](CCCNC(=N)N)C(=O)NCC(=O)N[C@@H](CCCNC(=N)N)C(=O)NCC(=O)O)C(C)C)[C@@H](C)CC)C(=O)O [Liraglutide]
Blood glucose (mmol/L) 0 min ([1]; 0 min, MNO-863 5 × 10^11 CFU/mL twice per day, Liraglutide 40 μg/mL once per day): 9.12 ± 1.04 mmol/L
Blood glucose (mmol/L) 15 min ([1]; 15 min): 20.43 ± 1.33 mmol/L
Blood glucose (mmol/L) 30 min ([1]; 30 min): 19.47 ± 2.26 mmol/L
Blood glucose (mmol/L) 60 min ([1]; 60 min): 12.67 ± 1.37 mmol/L
Blood glucose (mmol/L) 90 min ([1]; 90 min): 10.8 ± 0.92 mmol/L
Blood glucose (mmol/L) 120 min ([1]; 120 min): 9.75 ± 0.43 mmol/L
fasting blood glucose [2]: 7.02 ± 0.93 mmol/L
Body weight gain (g) Day 3 ([3]; Day 3, MNO-863 5 × 10^11 CFU/mL twice per day, Liraglutide 40 μg/mL once per day): -2.03 ± 0.24 g
Body weight gain (g) Day 6 ([3]; Day 6): -2.42 ± 0.44 g
Body weight gain (g) Day 10 ([3]; Day 10): -3.12 ± 0.86 g
Body weight gain (g) Day 13 ([3]; Day 13): -2.93 ± 0.95 g
Body weight gain (g) Day 17 ([3]; Day 17): -3.28 ± 1.06 g
Body weight gain (g) Day 20 ([3]; Day 20): -3.22 ± 0.88 g
inguinal fat weight ([4]; after 4 weeks of drug withdrawal, FIG. 33): reduce inguinal fat
body weight and body weight gain ([4]; four-week intervention and four weeks of drug withdrawal, FIG. 30-32): could reduce the body weight of obese mice, inhibit body weight gain thereof
abnormal glucose tolerance ([5]; FIG. 34): could improve abnormal glucose tolerance in obese mice
fasting blood glucose ([5]; FIG. 35, 36): could reduce fasting blood glucose
liver weight [6]: could reduce liver weight in obese mice
